# Measurements: article PMC7862700
# The list shows a part of the results, in another mix than the full data. At the low end of the ranking, values are background and their order means little.
# Target: T1, ELK3 (UniProt P41970)
# T1 sequence: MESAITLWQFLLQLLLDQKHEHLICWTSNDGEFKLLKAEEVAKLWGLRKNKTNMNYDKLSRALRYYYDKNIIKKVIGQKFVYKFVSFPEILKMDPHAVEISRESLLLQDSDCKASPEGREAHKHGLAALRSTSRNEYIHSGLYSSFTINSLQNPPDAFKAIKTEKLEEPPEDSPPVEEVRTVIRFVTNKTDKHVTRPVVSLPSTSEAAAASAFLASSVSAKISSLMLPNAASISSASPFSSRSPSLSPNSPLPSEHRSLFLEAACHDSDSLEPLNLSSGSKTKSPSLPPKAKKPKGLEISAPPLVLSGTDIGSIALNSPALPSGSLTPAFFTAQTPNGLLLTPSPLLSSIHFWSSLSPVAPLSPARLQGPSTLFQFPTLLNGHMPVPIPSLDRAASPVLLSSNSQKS
# Assay: DAPPL (digital affinity profiling via proximity ligation, sequencing)
# Details: 10 mM Tris-HCl pH 7.5, 50 mM NaCl, 1 mM DTT, 4% glycerol, room temperature, 30 min; GST-TFs on glutathione beads, 16-mer random dsDNA library, 0.1% …; high values mean tight binding; double strand, one strand shown; scale: fold enrichment (6-mer frequency, TF over GST control)
row,Sequence,binding signal
1,TGATTT,1.11
2,AATAGG,1.14
3,CTGGCA,1.43
4,AACCAC,1.29
5,TAGTAG,0.973
6,AGTTAA,1.04
7,ACTCAA,1.31
8,CGGTCT,1.18
9,ATCTTG,1.41
10,TGACCA,1.45
11,GCCCCG,0.878
12,CTAACC,1.29
13,GTTCCC,1.23
14,TAAACC,1.25
15,CCTGCC,1.13
16,TGTGCA,0.963
17,GCGCCT,1.05
18,TTTGTA,1.51
19,TGGTCC,1.15
20,CGTTTT,1.12

row,Sequence,binding signal
1,AGCAAT,1.05
2,TAGCTG,0.92
3,TACAGA,1.06
4,TTTCAC,1.39
5,TACGTC,1.21
6,CGTCAA,1.06
7,AAGCAA,0.938
8,ATTCAA,1.39
9,ATAATC,1.17
10,CATGTA,1.13
11,AAGAAG,1.05
12,CCGCAT,1.6
13,CTCCAT,1.36
14,CATCTC,1.22
15,TCACGT,1.16
16,CCGTAT,1.32
17,TAGATT,0.994
18,TTATTA,1.2
19,CCCTAT,1.46

# Some of the entries above, reformatted.
row	Sequence	binding signal
12	CTAACC	1.29
16	TGTGCA	0.963
